# Laboratory results reported in article PMC11424591.
# The chains behind the UniProt entries cited, without tags or fusion partners.
# UniProt Q99497: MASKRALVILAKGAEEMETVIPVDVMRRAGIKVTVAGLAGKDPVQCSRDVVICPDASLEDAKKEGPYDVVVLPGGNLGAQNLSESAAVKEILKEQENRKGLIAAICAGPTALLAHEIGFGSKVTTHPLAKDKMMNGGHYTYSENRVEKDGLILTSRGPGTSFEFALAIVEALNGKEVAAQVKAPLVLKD
# No constants are given. Whether binding was seen depends on the method and setting. In cells and extracts the contact can be indirect. A yes stands for co-enrichment or nearness to the bait. Other partners may have been found.
# Biological target: T1, EFCAB7 (human (endogenous in Hep3B)) (UniProt A8K855)
# T1 sequence: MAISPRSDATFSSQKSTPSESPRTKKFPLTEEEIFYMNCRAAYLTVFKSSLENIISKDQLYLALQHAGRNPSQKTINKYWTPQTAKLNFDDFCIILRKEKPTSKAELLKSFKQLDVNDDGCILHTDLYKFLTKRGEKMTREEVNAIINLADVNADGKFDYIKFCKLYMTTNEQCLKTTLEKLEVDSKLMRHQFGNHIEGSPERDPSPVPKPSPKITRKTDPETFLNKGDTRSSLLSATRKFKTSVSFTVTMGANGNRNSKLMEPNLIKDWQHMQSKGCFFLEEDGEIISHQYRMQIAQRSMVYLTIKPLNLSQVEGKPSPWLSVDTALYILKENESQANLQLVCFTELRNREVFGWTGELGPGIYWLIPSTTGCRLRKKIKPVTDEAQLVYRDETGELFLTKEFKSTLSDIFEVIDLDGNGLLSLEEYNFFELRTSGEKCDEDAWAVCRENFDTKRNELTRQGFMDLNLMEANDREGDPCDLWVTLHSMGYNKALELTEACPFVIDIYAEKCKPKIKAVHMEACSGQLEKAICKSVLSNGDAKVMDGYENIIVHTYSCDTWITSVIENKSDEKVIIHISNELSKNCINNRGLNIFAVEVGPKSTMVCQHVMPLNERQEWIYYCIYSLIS
# Test: affinity purification with mass spectrometry; mass spectrometry of proteins interacting with EFCAB7 in HCC tumor cell lines; no method described
substance,measurement,value
PARK7 (from UniProt Q99497 1-189),binding,binds
